Library screening results

Mtb growth Cornell: 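Whole-cell assay for inhibitors of Mycobacterium tuberculosis growth, labelled Cornell in the record; the read-out is not stated. The concentration is filed as 10 mM, unlikely as a test dose, so the dose is not known. Higher means stronger inhibition (inferred from two other growth screens of the library). Size under these conditions: about 53,000 compounds, about 900 of them at 50% or above in at least one test.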
Mtb heat-shock: 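Assay on Mycobacterium tuberculosis, filed only as a heat shock assay from Cornell; the read-out is not stated. The concentration is filed as 10 mM, unlikely as a test dose, so the dose is not known. The record gives no direction; compounds that gave an IC50 in retests scored well above the rest, so higher reads as stronger inhibition. About 69,000 compounds were tested under these conditions; 1.4% (about 930) showed 50% or more at least once.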

The filed quantity is “Percent Effect” (%).
The controls that fix the scale are not given in the record; negative values are as filed.
This is an unselected part of the compounds tested.
A dash means the value is not listed here; it may have been measured.

| # | structure | Mtb growth Cornell | Mtb heat-shock |
|---|---|---|---|
| 1 | `COCC1Cn2nnc(-c3cnn(C)c3)c2CN1Cc1cccs1.O=C(O)C(F)(F)F` (configuration not stated) | 24.99 | 17.22 |
| 2 | `FC1(F)CCNCC12CCN(c1ncccn1)C2` (configuration not stated) | -19.9 | 3.662 |
| 3 | `c1cc(C2CCN(c3ncnc4c3CCNCC4)CC2)ccn1` | - | -9.52 |
| 4 | `COc1cccc([C@@H]2CCN(Cc3cn(C)c4ccccc34)C[C@H]2O)c1` | -6.919 | 12.61 |
| 5 | `CNc1ccnc(N2CC[C@@](O)(C3CCOCC3)[C@H](C)C2)n1` | -3.354 | -10.67 |
| 6 | `O=C1CC2(CCCC2)CN1CCOc1ccc(F)cc1` | 19.58 | 41.04 |
| 7 | `CCc1n[nH]c(C2CN(C(=O)c3cncnc3CC)CCO2)n1` (configuration not stated) | 2.21 | 5.347 |
| 8 | `COc1ccc(CN(C)c2nc3c(cnn3C)c(=O)[nH]2)c(OC)c1` | -30.27 | -16.73 |
| 9 | `Cc1nccn1-c1ccc(CNS(=O)(=O)N2CCC(C)CC2)cn1` | 12.99 | -18.28 |
| 10 | `CC(C)c1noc(CCC(=O)NCC2CCS(=O)(=O)C2)n1` (configuration not stated) | - | 9.983 |
| 11 | `Cn1cnn(Cc2ccccc2F)c1=O` | 24.36 | -14.57 |
| 12 | `Cc1nc(C)n(C2CCCN(C(=O)c3ccn(C(C)C)n3)C2)n1` (configuration not stated) | - | -2.056 |
| 13 | `CC1CN(C)CCN1C(=O)Nc1nc(-c2ccco2)cs1` (configuration not stated) | - | -2.74 |
| 14 | `Cc1csc(Nc2nccnc2C2CCCN2CC(N)=O)n1` (configuration not stated) | - | -24.58 |
| 15 | `O=C(NCc1nnc2n1CCCC2)N(Cc1ccccc1F)C1CC1` | - | -9.703 |
| 16 | `COc1cccc(Cn2c(C)c(C)oc2=O)c1OC` | - | -6.712 |
| 17 | `Cc1nc(CN2CCN(C(=O)C(C(C)C)n3cncn3)CC2)cs1` (configuration not stated) | 14.5 | -32.32 |
| 18 | `CC(C)c1nn(C)c(N(C)C)c1CNCCC(=O)NC1CCCC1` | 14.03 | 10.66 |
| 19 | `O=C(O)C(F)(F)F.[H][C@]12CN(Cc3csc(C)n3)C(=O)[C@@]1([H])CN(c1ncc(F)cn1)C2` | -17.61 | -1.682 |
| 20 | `COc1cc(Cl)ccc1CNC(=O)N1CCC(n2cncn2)CC1` | -13.72 | -7.27 |
| 21 | `[H][C@@]12CCN(S(C)(=O)=O)[C@@]1([H])CCN2C(=O)c1cc(C)oc1C` | -15.02 | 27.73 |
| 22 | `Cc1cnn(CCC(=O)N2CCC(Nc3cccnn3)CC2)c1` | -24.59 | 6.744 |
| 23 | `Cc1ccsc1CN(CCN(C)C)C(=O)c1ccc(C#N)nc1` | 4.368 | 7.117 |
| 24 | `CC(C)Oc1ccccc1CNC(=O)N1CCC(n2cncn2)CC1` | - | -21.98 |
| 25 | `Cc1ccc(C2(O)CCN(C(=O)c3sccc3S(N)(=O)=O)CC2)nc1` | 16.47 | 21.2 |
| 26 | `Cc1cs/c(=N\C(=O)Cn2nc(N3CCC(C)CC3)ccc2=O)[nH]1` | 2.165 | 2.339 |
| 27 | `O=C(O)C(F)(F)F.[H][C@@]12CCN(c3cccnc3)C[C@]1([H])CN(C(=O)c1ccncc1)C2` | 0.1277 | 2.028 |
| 28 | `Cc1ccc(CS(=O)(=O)N2Cc3c(CN(C)C)nn(C)c3C2)cc1.O=C(O)C(F)(F)F` | -4.429 | 19.4 |
| 29 | `Fc1ccc2c(C3=CCN(Cc4nnc(C5CCC5)o4)CC3)c[nH]c2c1` | - | 32.49 |
| 30 | `COCCOc1ncccc1C(=O)Nc1c(C)cnn1CC1CC1` | -15.02 | -20.09 |
| 31 | `NS(=O)(=O)c1cnn(CC(=O)Nc2c(Cl)cccc2Cl)c1` | -50.55 | -10.09 |
| 32 | `Cc1ccc(CN(CCCn2ccnc2)Cc2cnn(C)c2)s1.O=C(O)CC(O)(CC(=O)O)C(=O)O` | -42.28 | -39.87 |
| 33 | `Cc1cccc(C(C(=O)N2CC(c3ccccn3)C2)N(C)C)c1` (configuration not stated) | 27.96 | -1.595 |
| 34 | `CC(c1ccccn1)N(C)Cc1ccc(-n2cncn2)cc1` (configuration not stated) | - | -29.8 |
| 35 | `CCN(C)c1ncnc2c1CCN(C(=O)c1ccccn1)CC2.O=C(O)C(F)(F)F.O=C(O)C(F)(F)F` | 22.92 | -32.13 |
| 36 | `COc1ccc(CN(C)C(=O)NCc2c(C)cc(C)nc2OC)cc1` | -10.68 | -7.193 |
| 37 | `CCc1nc(C(=O)N2CCCC2)nn1-c1c(Cl)cccc1Cl` | -19.96 | -15.71 |
| 38 | `Cc1ccc(C(=O)N2CCC3(CCN(C(=O)c4cccnc4)C3)CC2)o1.O=C(O)C(F)(F)F` | 5.731 | 1.785 |
| 39 | `O=C(NC1CC1)c1cc(Sc2ncccn2)ccn1` | 27.99 | -7.928 |
| 40 | `Cc1csc(NCC(=O)c2c[nH]c3ccccc23)n1.I` | 12.79 | 13.99 |
| 41 | `NC(=O)C(NC(=O)CSCc1ccc(Cl)s1)c1ccccc1` (configuration not stated) | 3.634 | -26.33 |
| 42 | `Nc1nc2c(c(NCc3ccncc3)n1)CCCC2` | -19.75 | -13.32 |
| 43 | `Cc1nn(C)c(C)c1C1COCCN1c1ncnc2c(C)cccc12` (configuration not stated) | -3.472 | -11.15 |
| 44 | `O=S(=O)(c1ccc(-c2cnco2)cc1)N1CCCC(O)(CO)CC1` (configuration not stated) | -34.52 | -14.92 |
| 45 | `Cc1ccc(-c2nc(CNC3CCc4ncnn4C3)co2)cc1` (configuration not stated) | -23.6 | 1.117 |
| 46 | `Cc1cccnc1C(Cc1ccsc1)NCc1cnc(N(C)C)nc1` (configuration not stated) | 3.476 | 69.2 |
| 47 | `COCCC1COC2(CCN(C(=O)CC3CCCC3)CC2)C1` (configuration not stated) | 30.71 | 8.649 |
| 48 | `O=C1CCCN1CCc1noc(-c2ccsc2)n1` | 20.59 | 40.6 |
| 49 | `CCn1cc(NC(=O)CN2C(=O)CC(C)(C)c3ccccc32)cn1` | 23.89 | 52.7 |
| 50 | `O=C(NCC1CCCO1)c1cc(-c2ccc3c(c2)CCO3)n[nH]1` (configuration not stated) | -17.9 | 2.318 |
| 51 | `CS(=O)(=O)c1ccc(NC(=O)CSC(F)(F)F)cn1` | -7.377 | -17.17 |
| 52 | `CCOc1ncccc1NC(=O)N1CCCN(C(=O)OC)CC1` | - | 5.336 |
| 53 | `COc1ccc(F)cc1CSCC(=O)N(C)CCC#N` | -22.87 | 1.445 |
| 54 | `FC(F)(F)c1cc(NCCCn2cccn2)nc(-c2cccnc2)n1` | -9.674 | 4.417 |
| 55 | `CCC(NS(=O)(=O)c1ccc(C(=O)NC2CC2)cc1)c1cnn(C)c1` (configuration not stated) | -8.91 | -5.353 |
| 56 | `CCc1nc(CN2CCCN(C(=O)C3CCOC3)CC2)cs1` (configuration not stated) | -22.79 | -4.965 |
| 57 | `O=C(O)C(F)(F)F.[H][C@]12C[C@H](C(=O)NC)N(S(C)(=O)=O)[C@@]1([H])CN(C(=O)c1ccncc1)C2` | -10.9 | -27.17 |
| 58 | `Cc1nc(CNC(=O)NC2CCN(c3ncccc3Cl)C2)oc1C` (configuration not stated) | -2.833 | -18.54 |
| 59 | `Cc1cccc2c(CCNC(=O)NCC[S+](C)[O-])c[nH]c12` (configuration not stated) | -1.954 | -5.028 |
| 60 | `O=C(C1CCCN1S(=O)(=O)C1CCCC1)N1CCSCC1` (configuration not stated) | 14.21 | 10.05 |
| 61 | `Cn1ccc(CS(=O)(=O)Cc2cccc(F)c2)cc1=O` | -10.77 | -2.692 |
| 62 | `O=C(c1ccc(=O)[nH]n1)N1CCCC1CCc1ccccc1` (configuration not stated) | 6.828 | -3.784 |
| 63 | `Cc1cc(C(=O)NCC(F)(F)F)c2c(C3CCNCC3)noc2n1` | - | -32.64 |
| 64 | `O=C(NCCCc1cccs1)N1CCCCC1CCO` (configuration not stated) | 19.92 | 3.848 |

Measurements from “University of Dundee, Small-Polar-MMV Screening Library” (2021), ChEMBL document CHEMBL3988442.